These are yes or no findings as the source states them, for the method shown. In cells and extracts the contact can be indirect. Binding can be weak; no strength is given.

The chains behind the UniProt entries cited, without tags or fusion partners. Where a name states a change or a piece, a line headed by the entry shows the natural chain unless it says otherwise.
UniProt Q60662: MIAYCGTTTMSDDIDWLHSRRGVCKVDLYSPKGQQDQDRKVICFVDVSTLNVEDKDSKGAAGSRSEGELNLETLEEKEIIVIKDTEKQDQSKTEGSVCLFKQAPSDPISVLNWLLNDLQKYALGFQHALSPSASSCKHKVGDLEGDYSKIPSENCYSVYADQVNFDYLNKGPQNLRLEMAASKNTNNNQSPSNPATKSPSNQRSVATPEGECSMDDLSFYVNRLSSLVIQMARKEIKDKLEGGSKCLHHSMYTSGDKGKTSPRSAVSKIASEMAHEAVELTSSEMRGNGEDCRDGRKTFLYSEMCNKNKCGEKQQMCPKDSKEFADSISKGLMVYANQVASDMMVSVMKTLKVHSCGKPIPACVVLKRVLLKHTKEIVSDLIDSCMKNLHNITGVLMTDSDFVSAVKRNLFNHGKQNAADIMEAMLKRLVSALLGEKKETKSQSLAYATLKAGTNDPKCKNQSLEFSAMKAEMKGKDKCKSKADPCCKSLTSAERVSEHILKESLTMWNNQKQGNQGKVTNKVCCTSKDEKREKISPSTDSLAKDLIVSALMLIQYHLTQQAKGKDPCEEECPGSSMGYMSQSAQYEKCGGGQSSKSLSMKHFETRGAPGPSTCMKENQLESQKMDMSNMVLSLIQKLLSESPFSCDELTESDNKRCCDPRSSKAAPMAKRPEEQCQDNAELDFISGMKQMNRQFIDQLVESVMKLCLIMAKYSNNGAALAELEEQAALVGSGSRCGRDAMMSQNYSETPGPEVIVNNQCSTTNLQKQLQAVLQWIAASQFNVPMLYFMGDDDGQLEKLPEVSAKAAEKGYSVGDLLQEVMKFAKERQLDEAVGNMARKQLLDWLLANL

This assay has as its target AKAP4 (mouse (endogenous in mouse sperm)) (UniProt Q60662). Kind of assay: co-IP; method 2: mouse sperm extracted in Celis buffer without DTT, dialysed against PBS, precipitated with anti-AKAP3 polyclonal or anti-AKAP4 monoclonal antibody; 2-D Western blot with anti-CABYR-A or anti-CABYR-B; pre-immune serum or normal mouse IgG as control. On the technique in general: A western blot detects proteins with antibodies after separation by electrophoresis.

B1: 80 kDa CABYR-A only variant (protein, UniProt Q9D424 1-453)
chain: MISSKPRLVVPYGLKTLLEGVSRAILKTNPTNITQFAAVYFKELIVFREGNSSLDIKDLIKQFHQMKVEKWAEGVTVEKKECIKEPIKPPPVPCKPTHMEKSTDTEEDNVAGPLFSNKTTQFPSVHAEVQSEETSEGARGPSDKPTTPKTDYTPPSSPPPAPVSAEYAYVPADPAQFAAQMLGNVPSTYSEVLMVDVATSTPAVPQDVLSAEFAEEVVLSAPLVCSGETVEVQVVSKTSAQVVVGPVSEAEPPKASSAPLQGEQEPPAHEAPDTQVTSASRISSIYNDVPVNEGVVYVEEIPGYIVIPFTDHDQVACVKEIEQSPPGSPKAVEPKTKISIESLKTVQVEENSQHKSSVHVEAEATVLLSNTALDGQPEVPAEPLDAEGFFKVASENSLHLETEIVIINPDDPGQEESGGNAAPHSSGDPFPPAPGGLTEPEMQPDGEAAPEQV
Turning to B1, the binding entry is “binds”.
